# Laboratory results as given in PubChem BioAssay AID493014 (National Center for Advancing Translational Sciences (NCATS), 2011).
# The list shows a part of the results. These are further read-outs of the screen, such as a control signal, another cell line or another target. No call is given for them. Compounds called inactive in the main read-out are mostly missing here. Words in brackets tell the shape of the fitted curve; partial curves, single points and poor fits give uncertain potencies.
# Assay: qHTS Assay to Find Inhibitors of Chronic Active B-Cell Receptor Signaling
# Conditions: ABC-DLBCL IkBa-CBG/CBR reporter, luminescence ratio (green luciferase fused to IkBa over red control in TMD8 lymphoma cells), 4 h
# Method in brief: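 Concentration-response series (up to 46 uM) were applied to TMD8 dual-reporter cells for 4 h at 37C with doxycycline. Green/red ratio, after filter-overlap correction, defined %Activity; red signal alone was normalised to basal cells and zero luminescence.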
# [1] = measured here: CBR red luminescence, cell number
# [2] = measured here: IkBa-CBG green luminescence
SMILES,AC50 [1],AC50 [2]
Cn1c(C(=O)N2CCc3ccccc3C2)cc2oc3ccccc3c21,"0.82 µM [rising, partial curve, poor fit]",–
O=C1N[C@H]2CC=C[C@H]2Nc2ccccc21,"29.1 µM [rising, single point]","18.4 µM [falling, partial curve]"
O=C(O)C1CCN(C(=O)CSc2nc3ccccc3c(=O)n2-c2ccc(Cl)cc2)CC1,"35.5 µM [falling, single point]",–
Cc1ccc(CNC(=O)C(N=C2NS(=O)(=O)c3ccccc32)C(C)C)cc1 (configuration not stated),"32.6 µM [falling, single point]",–
COCCn1nnnc1C(c1cccs1)N1CCN(c2cc(C)ccc2C)CC1 (configuration not stated),"18.4 µM [falling, single point]",–
CCc1nc(SCc2ccc([N+](=O)[O-])cc2)n[nH]1,"9.2 µM [rising, partial curve, poor fit]",–
COc1ccc(N2CCN(CCCNC(=O)c3cc(Nc4ccccc4OC)nc4ccccc34)CC2)cc1,–,"35.5 µM [rising, partial curve, poor fit]"
c1ccc(CCNc2nc3ccccc3n3nnnc23)cc1,"6.51 µM [falling, partial curve]",–
Oc1ccc(-c2cnc(-c3ccc(O)cc3)nc2)cc1,"14.1 µM [falling, partial curve]",–
COc1ccc2cc3c(N)nn(C(=O)c4ccc(Cl)c([N+](=O)[O-])c4)c3nc2c1,"0.651 µM [falling, full curve]",–
CN(CC1COc2ccccc2O1)C(=O)c1cc(COc2c(F)cccc2F)on1 (configuration not stated),"5.62 µM [rising, single point]",–
CSc1nc2nc3c(cc2c(=O)n1-c1ccc(C)cc1)COC(C)(C)C3,"35.5 µM [rising, partial curve, poor fit]",–
CC1CCN(CCCNC(=O)c2ccc3c(Cl)c4c(nc3c2)CCCC4)CC1,"10 µM [falling, single point]",–
c1cnn(Cc2cnc(N3CCOCC3)s2)c1,"20 µM [rising, single point]",–
O=C(Nc1nnc(Cc2ccccc2)s1)C1CCC1,"1.12 µM [rising, full curve, poor fit]",–
Cc1ccc(C2=Nc3ccccc3NC(C)(c3ccc(C)o3)C2)o1 (configuration not stated),"29.1 µM [falling, single point]",–
CC1(C(=O)N2CC3(CC(c4cccc(NC(=O)COc5ccc(Cl)cc5)c4)=NO3)C[C@@H]2C(N)=O)CC1 (some centres not stated),"11.2 µM [falling, partial curve]",–
Cc1ccc(C)c(N2N=C(C(=O)NCCN3C(=O)S/C(=C\c4cccnc4)C3=O)CCC2=O)c1,"5.17 µM [falling, partial curve]",–
COc1ccc(NC(=O)CN2CCCC2c2cccs2)cc1S(=O)(=O)N1CCCCC1 (configuration not stated),"6.51 µM [rising, single point]",–
NC(=O)C1CCN(c2nc(-c3cccnc3)cs2)CC1,"1.84 µM [rising, full curve, poor fit]",–
O=C(COC(=O)c1cc(NS(=O)(=O)c2cccs2)ccc1O)Nc1cc(Cl)ccc1Cl,"35.5 µM [rising, single point]",–

# Reprinted at random: 2 entries already listed
SMILES,AC50 [1],AC50 [2]
NC(=O)C1CCN(c2nc(-c3cccnc3)cs2)CC1,"1.84 µM [rising, full curve, poor fit]",–
Cc1ccc(C)c(N2N=C(C(=O)NCCN3C(=O)S/C(=C\c4cccnc4)C3=O)CCC2=O)c1,"5.17 µM [falling, partial curve]",–

# Record cards, as listed above:
# Cc1ccc(CNC(=O)C(N=C2NS(=O)(=O)c3ccccc32)C(C)C)cc1 (configuration not stated) as listed: AC50 [1]: 32.6 µM [falling, single point]
# c1cnn(Cc2cnc(N3CCOCC3)s2)c1 as listed: AC50 [1]: 20 µM [rising, single point]

# Remaining list, next part

SMILES,AC50 [1],AC50 [2]
COCc1nnc(NC(=O)c2cc3ccccc3o2)s1,"2 µM [falling, full curve, poor fit]",–
COc1ccc(S(=O)(=O)N2c3ccccc3OCC2C)cc1 (configuration not stated),"35.5 µM [rising, single point]","11.2 µM [falling, partial curve]"
COc1ccc(OC)c(C2C3=C(N=c4s/c(=C\c5cccc(O)c5)c(=O)n42)c2ccccc2CC3)c1 (configuration not stated),"29.1 µM [falling, single point]","25.9 µM [rising, partial curve, poor fit]"
Cc1ccc(-n2c(C)nc3ncnc(-c4ccccc4)c32)cc1,"4.11 µM [rising, partial curve, poor fit]",–
N/C(=N\OC(=O)/C=C/c1ccccc1)c1ccccn1,"0.447 µM [falling, full curve]",–
Cc1ccccc1CNC(=O)c1ccccc1N,"0.82 µM [falling, full curve, poor fit]",–
CC(Sc1nnc(C2CC2)n1C)C(=O)Nc1ccc2c(c1)CCC2 (configuration not stated),"32.6 µM [rising, single point]",–
O=C(NNC(=O)c1cc(-c2cccnc2)nc2ccccc12)Nc1ccc(Cl)cc1,"3.55 µM [rising, partial curve, poor fit]",–
COc1ccc(-c2ccc(-c3nnc(-c4ccncc4)o3)cc2)cc1,"35.5 µM [rising, single point]",–
Cc1ccc(S(=O)(=O)n2c(C)nc3cc(C)ccc32)cc1,"3.98 µM [rising, partial curve, poor fit]",–
COC(=O)c1sccc1-n1cccc1C(=O)C(=O)Nc1ccc(F)cc1,"11.2 µM [falling, partial curve, poor fit]",–
O=C(COC(=O)c1cccc(N2C(=O)C3CC=CCC3C2=O)c1)c1ccccc1 (configuration not stated),"35.5 µM [falling, single point]",–
Cc1cc2n(n1)SC(Nc1cc(Cl)ccc1Cl)N2 (configuration not stated),"11.6 µM [rising, partial curve, poor fit]",–
O=C(Nc1nc2ccccc2[nH]1)c1ccccc1[N+](=O)[O-],"35.5 µM [falling, single point]",–
CCOC(=O)Cc1csc(SCC(=O)N(CC(C)C)c2c(N)n(Cc3ccccc3)c(=O)[nH]c2=O)n1,"3.66 µM [falling, full curve, poor fit]",–
O=C(N/N=C/c1cccnc1)c1ccc2c(c1)OCCO2,"10.3 µM [falling, partial curve, poor fit]",–
O=C(CN1CCCCCC1)Nc1ccc(S(=O)(=O)N2CCCCC2)cc1,"4.47 µM [falling, full curve, poor fit]",–
COC(=O)c1sccc1NC(=O)CC1C(=O)NCCN1C(=O)Nc1ccc(OCc2ccccc2)cc1 (configuration not stated),"11.2 µM [falling, partial curve]",–
Cc1cccc(N2CCN(S(=O)(=O)c3ccc4c(c3)CCN4C(=O)CCC(=O)O)CC2)c1C,"7.94 µM [rising, partial curve]",–
CCN(CC)S(=O)(=O)c1ccc(NC(=O)COC(=O)c2ccc(NC(=O)CC#N)cc2)cc1,"25.1 µM [falling, single point]",–
CCOc1ccccc1C(=O)NCC(=O)N1CCC(C)CC1,"9.2 µM [falling, partial curve]",–

SMILES,AC50 [1],AC50 [2]
Cc1c(N=C2N=C(NC(=O)Nc3ccc(Cl)cc3)c3ccccc32)c(=O)n(-c2ccccc2)n1C,"4.47 µM [rising, full curve, poor fit]",–
CCSc1sccc1C1C(C#N)=C(N)N(c2cccnc2)C2=C1C(=O)CCC2 (configuration not stated),"29.1 µM [rising, single point]",–
CCN(CC)CCN1CCn2c3c(c4cc(C)ccc42)CCCC31 (configuration not stated),"20.6 µM [falling, partial curve, poor fit]",–
Cc1cccc(OCC(=O)Nc2ccccc2N2CCCCC2)c1C,"29.1 µM [rising, single point]",–
COc1ccc(-c2[nH]n(-c3ccc([N+](=O)[O-])cc3)c(=O)c2C=NCCN2CCNCC2)cc1,"0.355 µM [falling, full curve]",–
COC1C=CC(CNC(=O)c2cc3c(=O)n4cccc(C)c4nc3n2C)(OC)O1 (configuration not stated),"35.5 µM [rising, single point]",–
COCCn1c(C2CCCCC2)nc2sc3ccccc3c(=O)c2c1=O,"2.24 µM [rising, full curve, poor fit]",–
CNc1nc(-c2ccccn2)nnc1-c1ccccc1,"13 µM [falling, partial curve, poor fit]",–
Cc1cccc(C(=O)Nc2ccc(C(=O)/C=C/c3cccs3)cc2)c1,"35.5 µM [falling, single point]",–
O=C(Nc1ccc(S(=O)(=O)N2CCCC2)cc1)c1ccc(Br)o1,"11.2 µM [falling, partial curve, poor fit]",–
O=c1oc(Nc2ccccc2Cl)nc2ccccc12,"1.78 µM [falling, full curve]",–
CC(=O)N1CCN(C(=O)Nc2cccc(C(F)(F)F)c2)CC1,"17.8 µM [rising, single point]",–
COc1ccc(C2C(C(=O)Nc3ccccc3OC)=C(C)Nc3nnnn32)c(OC)c1 (configuration not stated),"15.8 µM [falling, single point]",–
COc1ccc(NC(=O)c2ccc3snnc3c2)cc1,"9.2 µM [falling, partial curve]",–
O=C(CSc1cccc[n+]1[O-])c1cc2ccccc2o1,"31.6 µM [rising, single point]","31.6 µM [falling, single point]"
Cc1ccc(Cl)cc1NC(=O)c1cnn2c(C(F)F)cc(-c3ccccc3)nc12,"6.31 µM [rising, single point]",–
O=C(Nc1ccccc1C(=O)N/N=C/c1ccc(F)cc1)c1ccccc1Br,"17.8 µM [falling, single point]",–
O=C(CN1C2=NCCCN2c2ccccc21)c1ccc(Cl)cc1Cl,"20.6 µM [falling, single point]",–
O=S(=O)(c1ccc(Cl)c(NC(=S)N/N=C/c2ccc(O)cc2)c1)N1CCOCC1,"14.6 µM [falling, partial curve]",–
O=C(CSc1nnc(-c2cccs2)o1)N1CCCCC1,"3.66 µM [falling, partial curve]",–
O=C(NCc1ccco1)c1ccc(Cn2c(=O)c3ccccc3n(Cc3ccc(Cl)cc3)c2=O)cc1,"2.31 µM [rising, partial curve, poor fit]",–
